Laboratory results: patent publication US20180177725A1, “CELL MEMBRANE-FORMED NANOSCALE VESICLES AND METHODS OF USING THEREOF” (WASHINGTON STATE UNIVERSITY, priority 2015, published 2018)

Assay: pH-gradient driven loading of agents in HL 60 vesicles

Row | Compound | increase of loading efficiency in HL 60 vesicles by pH gradient (pH 9.5 inside vesicles, agent solution at pH 4, versus control without gradient) | drug loading in HL 60 vesicles (basic drug) (pH 3.5 inside vesicles, caffeine solution at pH 9 or sonicated in HBSS pH 7.5, versus HBSS pH 7.5)
1 | O=S1(=O)OC(c2cc(Br)c(O)c(Br)c2)(c2cc(Br)c(O)c(Br)c2)c2ccccc21 [bromophenol blue] | 2-3 fold | –
2 | Cn1c(=O)c2c(ncn2C)n(C)c1=O [caffeine] | – | dramatically increased
